From article doi:10.1101/585604 come the findings set out here.

Amino acid sequences for entries named in this document (tags omitted).
UniProt Q92793: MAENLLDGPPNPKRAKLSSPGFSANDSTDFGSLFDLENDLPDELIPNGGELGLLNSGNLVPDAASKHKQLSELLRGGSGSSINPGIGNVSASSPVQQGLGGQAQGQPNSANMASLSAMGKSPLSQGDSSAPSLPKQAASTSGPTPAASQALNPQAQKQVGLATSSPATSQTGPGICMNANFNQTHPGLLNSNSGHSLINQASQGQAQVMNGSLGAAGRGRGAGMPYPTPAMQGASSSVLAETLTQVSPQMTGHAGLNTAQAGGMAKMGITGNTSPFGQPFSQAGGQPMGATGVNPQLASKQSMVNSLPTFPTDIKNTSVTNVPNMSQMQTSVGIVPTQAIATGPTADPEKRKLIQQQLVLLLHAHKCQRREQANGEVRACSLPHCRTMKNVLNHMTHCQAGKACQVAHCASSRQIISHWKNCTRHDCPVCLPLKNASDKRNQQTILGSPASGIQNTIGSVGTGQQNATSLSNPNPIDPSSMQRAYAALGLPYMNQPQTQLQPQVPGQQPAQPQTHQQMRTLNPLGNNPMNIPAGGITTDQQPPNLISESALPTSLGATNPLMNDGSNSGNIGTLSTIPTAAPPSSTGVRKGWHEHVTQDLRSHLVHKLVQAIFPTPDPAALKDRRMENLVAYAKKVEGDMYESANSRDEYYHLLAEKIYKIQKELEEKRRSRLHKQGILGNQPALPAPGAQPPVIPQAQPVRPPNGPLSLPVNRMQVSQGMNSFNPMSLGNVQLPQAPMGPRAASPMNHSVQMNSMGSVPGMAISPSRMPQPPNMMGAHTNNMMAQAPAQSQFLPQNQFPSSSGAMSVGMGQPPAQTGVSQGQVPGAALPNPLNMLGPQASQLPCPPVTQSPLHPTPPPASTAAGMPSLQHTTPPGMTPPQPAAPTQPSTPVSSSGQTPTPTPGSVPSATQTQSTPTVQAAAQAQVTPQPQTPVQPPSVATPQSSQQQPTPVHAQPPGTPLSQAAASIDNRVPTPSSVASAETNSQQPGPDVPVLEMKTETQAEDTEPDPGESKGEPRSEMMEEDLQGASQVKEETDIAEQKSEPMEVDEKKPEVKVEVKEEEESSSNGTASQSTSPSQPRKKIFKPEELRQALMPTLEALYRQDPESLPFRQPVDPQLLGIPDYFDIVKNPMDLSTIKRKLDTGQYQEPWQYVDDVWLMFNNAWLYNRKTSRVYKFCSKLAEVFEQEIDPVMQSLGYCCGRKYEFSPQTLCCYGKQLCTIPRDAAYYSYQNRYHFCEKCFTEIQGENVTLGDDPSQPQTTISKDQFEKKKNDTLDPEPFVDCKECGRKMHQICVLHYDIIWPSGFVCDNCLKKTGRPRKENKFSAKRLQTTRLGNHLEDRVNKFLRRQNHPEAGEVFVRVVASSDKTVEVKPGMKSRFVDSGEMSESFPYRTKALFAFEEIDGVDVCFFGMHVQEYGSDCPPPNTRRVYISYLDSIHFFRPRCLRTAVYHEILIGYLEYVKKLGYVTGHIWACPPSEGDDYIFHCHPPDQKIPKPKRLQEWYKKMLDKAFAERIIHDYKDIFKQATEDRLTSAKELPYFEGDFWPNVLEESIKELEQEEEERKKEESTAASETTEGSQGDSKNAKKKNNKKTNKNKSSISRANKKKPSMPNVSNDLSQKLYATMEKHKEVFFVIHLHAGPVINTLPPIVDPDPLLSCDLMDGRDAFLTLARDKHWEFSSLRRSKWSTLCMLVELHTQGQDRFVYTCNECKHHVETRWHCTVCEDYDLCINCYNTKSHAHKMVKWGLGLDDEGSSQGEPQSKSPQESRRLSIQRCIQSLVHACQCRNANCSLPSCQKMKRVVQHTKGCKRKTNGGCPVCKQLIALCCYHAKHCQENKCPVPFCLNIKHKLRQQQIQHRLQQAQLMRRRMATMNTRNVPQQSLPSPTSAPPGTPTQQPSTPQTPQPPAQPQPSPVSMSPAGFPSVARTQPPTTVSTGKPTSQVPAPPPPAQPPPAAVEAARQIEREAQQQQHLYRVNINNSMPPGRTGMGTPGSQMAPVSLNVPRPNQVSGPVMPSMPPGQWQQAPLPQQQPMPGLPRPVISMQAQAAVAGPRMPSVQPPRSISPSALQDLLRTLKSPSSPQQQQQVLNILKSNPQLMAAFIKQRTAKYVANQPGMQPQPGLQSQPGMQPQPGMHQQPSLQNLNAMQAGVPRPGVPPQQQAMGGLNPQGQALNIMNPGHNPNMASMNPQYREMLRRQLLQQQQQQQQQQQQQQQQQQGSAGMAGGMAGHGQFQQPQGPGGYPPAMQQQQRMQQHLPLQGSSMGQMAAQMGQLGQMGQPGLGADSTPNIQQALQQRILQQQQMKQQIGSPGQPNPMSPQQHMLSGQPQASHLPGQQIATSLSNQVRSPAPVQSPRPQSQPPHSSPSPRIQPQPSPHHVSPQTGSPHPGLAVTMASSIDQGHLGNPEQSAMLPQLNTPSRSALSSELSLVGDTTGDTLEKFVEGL
UniProt Q7Z5L9: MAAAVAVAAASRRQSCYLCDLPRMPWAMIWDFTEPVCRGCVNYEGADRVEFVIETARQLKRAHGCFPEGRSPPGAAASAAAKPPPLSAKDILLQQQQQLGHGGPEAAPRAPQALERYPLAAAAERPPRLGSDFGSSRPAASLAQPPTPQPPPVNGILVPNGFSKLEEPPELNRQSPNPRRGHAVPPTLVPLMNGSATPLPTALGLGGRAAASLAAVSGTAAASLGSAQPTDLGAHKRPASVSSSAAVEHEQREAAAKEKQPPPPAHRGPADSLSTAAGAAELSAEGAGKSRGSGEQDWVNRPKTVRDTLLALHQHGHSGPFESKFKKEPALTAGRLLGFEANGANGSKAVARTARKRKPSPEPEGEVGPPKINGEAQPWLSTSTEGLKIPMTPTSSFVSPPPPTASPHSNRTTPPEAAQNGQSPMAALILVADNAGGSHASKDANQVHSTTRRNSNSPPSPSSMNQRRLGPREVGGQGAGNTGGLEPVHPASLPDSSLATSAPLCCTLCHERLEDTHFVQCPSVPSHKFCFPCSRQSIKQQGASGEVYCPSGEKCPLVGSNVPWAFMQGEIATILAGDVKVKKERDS
UniProt Q15788: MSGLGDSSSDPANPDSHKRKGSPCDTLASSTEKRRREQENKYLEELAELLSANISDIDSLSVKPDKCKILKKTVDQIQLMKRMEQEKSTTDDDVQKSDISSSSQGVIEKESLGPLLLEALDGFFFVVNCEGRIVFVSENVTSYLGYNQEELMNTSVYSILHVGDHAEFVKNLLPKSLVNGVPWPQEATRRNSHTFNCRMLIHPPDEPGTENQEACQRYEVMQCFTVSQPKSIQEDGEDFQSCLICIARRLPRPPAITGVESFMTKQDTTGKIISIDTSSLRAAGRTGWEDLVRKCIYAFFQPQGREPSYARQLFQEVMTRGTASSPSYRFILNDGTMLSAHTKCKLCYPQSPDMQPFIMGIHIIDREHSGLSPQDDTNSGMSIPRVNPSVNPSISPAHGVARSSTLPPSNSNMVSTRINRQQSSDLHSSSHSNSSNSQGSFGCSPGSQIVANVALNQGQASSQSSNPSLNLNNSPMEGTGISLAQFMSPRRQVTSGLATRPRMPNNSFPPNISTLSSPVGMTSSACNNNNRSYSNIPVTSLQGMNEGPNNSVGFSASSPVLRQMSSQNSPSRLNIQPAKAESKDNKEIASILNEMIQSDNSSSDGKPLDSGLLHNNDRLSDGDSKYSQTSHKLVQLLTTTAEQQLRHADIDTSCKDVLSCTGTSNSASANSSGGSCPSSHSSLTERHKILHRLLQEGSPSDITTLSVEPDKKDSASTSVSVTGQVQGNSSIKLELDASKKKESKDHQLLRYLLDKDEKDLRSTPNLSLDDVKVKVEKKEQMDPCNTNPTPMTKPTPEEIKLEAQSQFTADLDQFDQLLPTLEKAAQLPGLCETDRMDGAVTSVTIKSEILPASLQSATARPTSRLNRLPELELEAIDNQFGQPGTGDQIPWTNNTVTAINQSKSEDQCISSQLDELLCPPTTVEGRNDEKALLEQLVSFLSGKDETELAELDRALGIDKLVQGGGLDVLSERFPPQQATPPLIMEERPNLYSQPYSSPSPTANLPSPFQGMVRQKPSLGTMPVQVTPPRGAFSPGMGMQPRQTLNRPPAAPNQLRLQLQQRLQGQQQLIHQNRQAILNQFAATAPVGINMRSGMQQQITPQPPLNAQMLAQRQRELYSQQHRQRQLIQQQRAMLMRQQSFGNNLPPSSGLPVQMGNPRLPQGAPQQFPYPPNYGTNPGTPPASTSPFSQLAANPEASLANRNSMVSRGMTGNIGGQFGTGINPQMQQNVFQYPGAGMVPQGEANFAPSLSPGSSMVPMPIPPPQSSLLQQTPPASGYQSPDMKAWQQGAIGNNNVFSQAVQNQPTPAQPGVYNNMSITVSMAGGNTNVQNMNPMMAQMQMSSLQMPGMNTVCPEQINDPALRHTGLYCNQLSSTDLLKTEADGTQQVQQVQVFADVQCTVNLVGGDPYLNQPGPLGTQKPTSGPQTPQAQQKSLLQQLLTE

These are yes or no findings as the source states them, for the method shown. Binding seen in cells or lysates may run through a third protein. Here binding means that the protein was enriched with, or labelled near, the bait; the list need not be complete. For part of these data: No binding means not detected with the bait. For part of these data: Where a sequence is shown, tags or fusion partners need not be part of it.

Holding throughout (test): proximity labelling
For assay [1], the target named is T1, HNF4α5-BioID2-3myc (human) (UniProt P41235).
T1 sequence: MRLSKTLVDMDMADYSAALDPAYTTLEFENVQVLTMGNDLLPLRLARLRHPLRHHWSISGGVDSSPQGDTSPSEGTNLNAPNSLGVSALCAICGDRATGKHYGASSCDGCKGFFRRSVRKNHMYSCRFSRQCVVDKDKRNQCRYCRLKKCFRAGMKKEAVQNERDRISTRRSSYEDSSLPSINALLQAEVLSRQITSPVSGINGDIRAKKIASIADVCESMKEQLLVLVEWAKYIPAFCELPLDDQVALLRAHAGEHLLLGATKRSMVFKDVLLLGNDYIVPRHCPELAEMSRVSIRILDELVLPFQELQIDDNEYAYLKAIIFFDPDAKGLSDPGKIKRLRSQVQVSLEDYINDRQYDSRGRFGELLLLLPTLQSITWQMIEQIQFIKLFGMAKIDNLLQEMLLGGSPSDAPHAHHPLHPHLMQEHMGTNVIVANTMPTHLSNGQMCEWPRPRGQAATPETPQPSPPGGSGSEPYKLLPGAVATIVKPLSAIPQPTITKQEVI

Assay [2] addresses HNF4α8-BioID2-3myc (human) (UniProt P41235).
Assay [3] deals with T2, HNF4α3-BioID2-3myc (human) (UniProt P41235).
T2 sequence: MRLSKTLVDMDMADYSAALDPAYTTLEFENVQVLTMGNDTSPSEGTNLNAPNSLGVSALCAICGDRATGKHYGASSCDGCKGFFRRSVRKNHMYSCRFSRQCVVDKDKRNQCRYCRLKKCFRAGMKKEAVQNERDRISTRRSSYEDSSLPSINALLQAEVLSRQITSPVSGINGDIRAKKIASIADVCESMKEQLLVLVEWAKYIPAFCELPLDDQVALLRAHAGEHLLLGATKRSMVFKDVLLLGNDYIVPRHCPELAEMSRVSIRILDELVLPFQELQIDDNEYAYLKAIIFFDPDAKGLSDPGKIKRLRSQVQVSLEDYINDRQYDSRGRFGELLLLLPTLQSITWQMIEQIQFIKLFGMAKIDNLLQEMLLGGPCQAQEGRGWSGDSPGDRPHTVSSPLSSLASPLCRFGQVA

For assay [4], the target named is T3, HNF4α9-BioID2-3myc (human) (UniProt P41235).
T3 sequence: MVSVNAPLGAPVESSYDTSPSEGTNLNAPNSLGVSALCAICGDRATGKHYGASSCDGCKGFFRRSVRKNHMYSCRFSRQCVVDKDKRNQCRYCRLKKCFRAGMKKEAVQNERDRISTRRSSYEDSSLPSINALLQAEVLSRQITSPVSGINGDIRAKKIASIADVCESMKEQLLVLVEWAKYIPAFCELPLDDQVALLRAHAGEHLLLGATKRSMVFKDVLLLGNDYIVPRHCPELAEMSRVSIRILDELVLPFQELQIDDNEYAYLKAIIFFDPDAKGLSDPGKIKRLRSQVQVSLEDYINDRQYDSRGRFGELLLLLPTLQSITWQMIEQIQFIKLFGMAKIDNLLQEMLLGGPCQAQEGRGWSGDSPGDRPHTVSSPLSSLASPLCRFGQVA

Assay [5] concerns the target HNF4α7-BioID2-3myc (human) (UniProt P41235).
Assay [6] has as its target HNF4α4-BioID2-3myc (human) (UniProt P41235).
In assay [7] the target is HNF4α12-BioID2-3myc (human).
Assay [8] concerns the target HNF4α10-BioID2-3myc (human).
Assay [9] addresses HNF4α11-BioID2-3myc (human).
Assay [10] concerns the target HNF4α2-BioID2-3myc (human).
Assay [11] has as its target HNF4α1-BioID2-3myc (human).
For assay [12], the target named is HNF4α6-BioID2-3myc (human).

Consider CBP (from UniProt Q92793 1-2442), for which the binding result in assay [1], in [2], in assay [3], in [4], in assay [5] and in assay [6] was “binds” each time.
With IRF-2BP2 (from UniProt Q7Z5L9 1-587), the binding result in assay [3] and in assay [4] was “no binding” in each case.
On to NCOA-1 (from UniProt Q15788 1-1441), for which the binding result in assay [1], in assay [2], in assay [3], in [4], in assay [5] and in [6] was “binds” each time.

B1: FOSL1 (protein, UniProt P15407 1-271)
chain: MFRDFGEPGPSSGNGGGYGGPAQPPAAAQAAQQKFHLVPSINTMSGSQELQWMVQPHFLGPSSYPRPLTYPQYSPPQPRPGVIRALGPPPGVRRRPCEQISPEEEERRRVRRERNKLAAAKCRNRRKELTDFLQAETDKLEDEKSGLQREIEELQKQKERLELVLEAHRPICKIPEGAKEGDTGSTSGTSSPPAPCRPVPCISLSPGPVLEPEALHTPTLMTTPSLTPFTPSLVFTYPSTPEPCASAHRKSSSSSGDPSSDPLGSPTLLAL
Consider B1, for which the binding entry in assay [1], in assay [2], in assay [3], in assay [4], in assay [7] and in assay [8] was “binds” in each case. The binding entry in [9], in assay [10], in assay [11], in assay [5], in assay [6] and in assay [12] was “binds” throughout.

B2: HNF4γ (protein, UniProt Q14541 1-408)
chain: MNTTDNGVNCLCAICGDRATGKHYGASSCDGCKGFFRRSIRKSHVYSCRFSRQCVVDKDKRNQCRYCRLRKCFRAGMKKEAVQNERDRISTRRSTFDGSNIPSINTLAQAEVRSRQISVSSPGSSTDINVKKIASIGDVCESMKQQLLVLVEWAKYIPAFCELPLDDQVALLRAHAGEHLLLGATKRSMMYKDILLLGNNYVIHRNSCEVEISRVANRVLDELVRPFQEIQIDDNEYACLKAIVFFDPDAKGLSDPVKIKNMRFQVQIGLEDYINDRQYDSRGRFGELLLLLPTLQSITWQMIEQIQFVKLFGMVKIDNLLQEMLLGGASNDGSHLHHPMHPHLSQDPLTGQTILLGPMSTLVHADQISTPETPLPSPPQGSGQEQYKIAANQASVISHQHLSKQKQL
Regarding B2, the binding result in assay [6] is on record as “binds”.
